Laboratory results: PubChem BioAssay AID504774 (Drosophila RNAi Screening Center, 2011)
The deposit covers about 23,000 reagents; below is an unselected part of those with a known target gene and a result. 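Values are quantile-normalised luminescence on an arbitrary scale; higher means more cells surviving MMS.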 Not all columns of the deposit are shown.

Test: 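Knock-downs that shift viability of MMS-exposed cells relative to untreated ones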 (primary screen)
System: Drosophila Kc167 cells
Reagent: long dsRNA against Drosophila genes, about 0.25 µg dsRNA per well
Timing: about 6 days: 3 days knock-down, then 3 days with or without MMS
Conditions: methyl methanesulphonate 0.004% (w/v) for 3 days after knock-down
Read-out: 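Viability in wells given MMS, read as ATP luminescence, normalised by quantiles plate by plate and averaged across replicates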
Scale: mean viability with MMS and viability with MMS: higher = more surviving cells after MMS

With knock-down of ND6 (retired record) [DRSC21271], the record shows mean viability with MMS 3.58e6; viability with MMS, replicate 1 = 3.91e6.
After knock-down of Osi22 [DRSC16442], the record shows mean viability with MMS 3.44e6; viability with MMS, replicate 1 = 3.87e6.
Silencing of CG12576 [DRSC20621] gave: mean viability with MMS 3.52e6; viability with MMS, replicate 1 = 3.99e6.
After knock-down of CG30159 [DRSC04981], the screen gave mean viability with MMS 3.69e6; viability with MMS, replicate 1 = 4.14e6.
Silencing of Fit2 [DRSC10908] gave: mean viability with MMS 3.72e6; viability with MMS, replicate 1 = 4.27e6.
For santa-maria [DRSC00994], the values are mean viability with MMS 3.69e6; viability with MMS, replicate 1 = 4.24e6.
santa-maria [DRSC02180] scored mean viability with MMS 3.57e6; viability with MMS, replicate 1 = 3.95e6.

Entries listed so far whose gene name begins with C or c (2):
CG12576 [DRSC20621] → mean viability with MMS = 3.52e6; viability with MMS, replicate 1 = 3.99e6
CG30159 [DRSC04981] → mean viability with MMS = 3.69e6; viability with MMS, replicate 1 = 4.14e6

Further results follow:
Against inv [DRSC07633], the entry reads mean viability with MMS 3.38e6; viability with MMS, replicate 1 = 3.86e6.
WRNexo [DRSC16278] scored mean viability with MMS 3.65e6; viability with MMS, replicate 1 = 4.17e6.
Silencing of l(3)07882 [DRSC15882] gave: mean viability with MMS 3.53e6; viability with MMS, replicate 1 = 3.98e6.
After knock-down of mip40 [DRSC06541], the screen gave mean viability with MMS 3.73e6; viability with MMS, replicate 1 = 4.15e6.
With knock-down of Obp99c [DRSC16262], the record shows mean viability with MMS 3.61e6; viability with MMS, replicate 1 = 4.14e6.
Knock-down of Gr59f [DRSC04499] came out at: mean viability with MMS 3.65e6; viability with MMS, replicate 1 = 4.03e6.
After knock-down of CG5435 [DRSC02860], the record shows mean viability with MMS 3.68e6; viability with MMS, replicate 1 = 4.12e6.
